The campaign covered roughly 330,000 compounds. About 7,700 (2.3%) were called active. This list was built around the results that the source calls inconclusive (neither active nor inactive); the mix of calls is not that of the screen. Calls come from the whole dose curve; as a rule, active = well fitted inhibition curve with a large enough effect; inconclusive = small, poorly fitted or top-dose-only effect, or effect the other way; inactive = flat fitted curve, though single readings scatter. Where the call is inconclusive, the potency comes from a doubtful curve fit.
assay: qHTS screen for small molecules that inhibit ELG1-dependent DNA repair in human embryonic kidney (HEK293T) cells expressing luciferase-tagged ELG1; conditions: HEK293T ELG1-luciferase reporter, luminescence, 16 h, DNA damage induced by 5-fluorouridine; series mostly up to 46.1 µM; note: nearly all actives have a fitted effect of over 55% in size
Outline: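 Luminescence from the luciferase reporter, measured 30 min after ONE-Glo reagent at room temperature, was the read-out. Beforehand, 2,000 cells per well were exposed for 16 hr at 37 °C to 5-fluorouridine together with compound or vehicle.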
Potency is the fitted concentration of half-maximal effect.

SMILES	Potency
CC(C)OC(=O)CSc1nc(N)c(C#N)c(-c2cccs2)c1C#N	inconclusive: 4.61 µM [inhibitor, partial curve]
COc1ccc(C(=O)OCC(=O)c2ccc(S(=O)(=O)N3CCCCC3)cc2)c(OC)c1	inconclusive: 29.1 µM [inhibitor, single point]
CS(=O)(=O)c1ccc(Cl)c(NC(=O)COC(=O)CNC(=O)c2ccc3ccccc3c2)c1	inconclusive: 6.51 µM [activator, single point]
COc1ccc(OCc2cc(C(=O)N3CCN(C4CCCC4)CC3)no2)c(Cl)c1	inconclusive: 20.6 µM [activator, partial curve]
Cc1nc([N+](=O)[O-])c(Br)n1Cc1ccc(Cl)c(Cl)c1	inconclusive: 29.1 µM [inhibitor, single point]
Cc1ccccc1-c1nc(-c2ccc(Br)o2)no1	inconclusive: 18.3 µM [activator, partial curve]
COCCn1c(SCC(=O)N2CCCC2=O)nc2sc(C)c(C)c2c1=O	inconclusive: 20.6 µM [activator, partial curve, poor fit]
O=C(CCc1ccccc1)NCCSc1ccccc1	inconclusive: 20.6 µM [activator, partial curve]
O=C(Nc1ccc(N2CCCC2)c(Cl)c1)c1cccc(-c2cc3ccccc3oc2=O)c1	inactive
COc1ccccc1NC(=O)c1ccc(COc2ccccc2OC)o1	inconclusive: 29.1 µM [inhibitor, single point]
COC(=O)C1SCC2C(=O)N(Cc3ccc(Cl)cc3)CC(=O)N21 (centres undefined)	inactive
COc1ccc(C(=O)NCCNC(=O)c2ccccn2)cc1	inactive
O=C(Nc1ccccc1C(=O)NCc1ccccc1)c1ccccc1	inconclusive: 16.4 µM [inhibitor, partial curve, poor fit]
N=C1SC(CC(=O)Nc2ccc([N+](=O)[O-])cc2)C(=O)N1c1ccccc1 (centres undefined)	inconclusive: 29.1 µM [inhibitor, partial curve, poor fit]
CN(CC(=O)Nc1nc2ccccc2s1)S(=O)(=O)c1ccccc1	inconclusive: 9.2 µM [activator, partial curve, poor fit]
O=C1CCCCC1	inactive
O=C(Nc1ccc2c(c1)OCO2)c1c(F)cccc1F	inconclusive: 20.6 µM [activator, partial curve]
CCN1CCN(Cc2ccc(OCc3ccccc3)c(OC)c2)CC1	inconclusive: 20.6 µM [activator, partial curve]
Cn1cc([N+](=O)[O-])c(C(=O)Nc2cc(Oc3ccccc3)cc([N+](=O)[O-])c2)n1	inconclusive: 2.06 µM [inhibitor, full curve]
Cc1ccc(NC(=O)Nc2ccnc(-c3cccnc3)n2)cc1	inactive
CCSc1nnc(N(CCC(=O)O)CCC(=O)O)s1	inconclusive: 0.651 µM [inhibitor, single point]
CCCC(C)C(=O)Nc1cc(S(=O)(=O)N2CCCCC2)ccc1N1CCOCC1 (centres undefined)	inactive

SMILES	Potency
O=C(NC1=NCCS1)c1cccs1	inconclusive: 9.2 µM [activator, partial curve, poor fit]
O=C(Nc1ccccc1Cl)N(Cc1nc2ccccc2c(=O)[nH]1)Cc1cccs1	inconclusive: 18.4 µM [inhibitor, partial curve]
Nc1cccc(-c2nc3ccccc3[nH]2)c1	inconclusive: 20.6 µM [activator, partial curve]
CCC(C)(C)n1nnnc1C(c1ccc(F)cc1)N1CCN(C(=O)c2ccco2)CC1 (centres undefined)	inactive
COc1ccc(S(=O)(=O)N2CCCCCC2)cc1C(=O)NCc1ccc(C)cc1	inconclusive: 7.94 µM [inhibitor, partial curve, poor fit]
O=C(NN1C(=O)c2ccccc2C1=O)c1ccc2c(c1)C(=O)N(CC1CCCO1)C2=O (centres undefined)	inconclusive: 16.4 µM [activator, single point]
CCOC(=O)c1cnc(-c2ccccc2)nc1Oc1ccc(Cl)cc1	inactive
Cn1c(=O)n(C)c2cc(NS(=O)(=O)c3ccc(F)cc3)ccc21	inconclusive: 20.6 µM [activator, partial curve]
COc1ccc(C(=O)Nc2ccc(-c3ccc(C)o3)cc2)cc1S(=O)(=O)N1CCOCC1	active: 14.6 µM
Cc1ccc(S(=O)(=O)N2CCN(c3ncnc4sccc34)CC2)cc1C	inconclusive: 9.2 µM [inhibitor, partial curve]
N#Cc1ccc(C2=CC(=O)C[C@H](c3ccc(Cl)cc3)C2)cc1	inconclusive: 18.3 µM [inhibitor, single point]
CCO/C(C)=N/n1c2nc3ccccc3nc2c2c(=O)n(Cc3ccccc3Cl)c(C)nc21	inactive
CC(C)N(C(=O)CSc1nnc(CN2CCCCCC2=O)n1-c1ccccn1)C(C)C	inconclusive: 32.6 µM [activator, partial curve, poor fit]
Cc1ccc(NC(CC(=O)c2ccccc2)c2ccc(F)cc2)cc1 (centres undefined)	inconclusive: 18.4 µM [activator, single point]
CCOc1ccc(NC(=S)N2CCN(S(=O)(=O)c3ccc(OC)cc3)CC2)cc1	inactive
Cc1nn(-c2ccccc2)c(N2CCCC2)c1/C=N/n1cnc2scc(-c3ccccc3)c2c1=O	active: 13 µM
N=C1C(c2ccccc2)=C(O)CN1c1cccc(S(=O)(=O)NCc2ccco2)c1	inconclusive: 29.1 µM [inhibitor, single point]
O=C(Nc1ccc(NC(=O)c2ccco2)cc1)c1ccc2c(c1)OCCO2	inconclusive: 29.1 µM [activator, single point]
COc1cc(OC)cc(C(=O)Nc2nnc(Cc3ccc(OC)c(OC)c3)s2)c1	inactive
Cc1cccc(-n2nnnc2SCC(=O)c2cc(C)n(CC3CCCO3)c2C)c1 (centres undefined)	inconclusive: 11.2 µM [activator, partial curve, poor fit]
CCOC(=O)N/N=C1\CCS(=O)(=O)c2ccc(Cl)cc21	inactive
COc1cc(NS(=O)(=O)c2ccc(NC(=O)CSC3=NCCS3)cc2)nc(OC)n1	inconclusive: 29.1 µM [activator, single point]

Some of these compounds in order of formula weight, high to low.
SMILES	Potency
CC(C)N(C(=O)CSc1nnc(CN2CCCCCC2=O)n1-c1ccccn1)C(C)C	inconclusive: 32.6 µM [activator, partial curve, poor fit]
O=C(NN1C(=O)c2ccccc2C1=O)c1ccc2c(c1)C(=O)N(CC1CCCO1)C2=O (centres undefined)	inconclusive: 16.4 µM [activator, single point]
O=C(NC1=NCCS1)c1cccs1	inconclusive: 9.2 µM [activator, partial curve, poor fit]
